In article doi:10.1101/2024.01.31.578330:
No constants are given. Whether binding was seen depends on the method and setting. Binding seen in cells or lysates may run through a third protein. Here binding means that the protein was enriched with, or labelled near, the bait; the list need not be complete. Where a sequence is shown, tags or fusion partners need not be part of it.

Protein sequences, listed by entry. Tags and fused reporters are not part of them.
UniProt Q95Q95: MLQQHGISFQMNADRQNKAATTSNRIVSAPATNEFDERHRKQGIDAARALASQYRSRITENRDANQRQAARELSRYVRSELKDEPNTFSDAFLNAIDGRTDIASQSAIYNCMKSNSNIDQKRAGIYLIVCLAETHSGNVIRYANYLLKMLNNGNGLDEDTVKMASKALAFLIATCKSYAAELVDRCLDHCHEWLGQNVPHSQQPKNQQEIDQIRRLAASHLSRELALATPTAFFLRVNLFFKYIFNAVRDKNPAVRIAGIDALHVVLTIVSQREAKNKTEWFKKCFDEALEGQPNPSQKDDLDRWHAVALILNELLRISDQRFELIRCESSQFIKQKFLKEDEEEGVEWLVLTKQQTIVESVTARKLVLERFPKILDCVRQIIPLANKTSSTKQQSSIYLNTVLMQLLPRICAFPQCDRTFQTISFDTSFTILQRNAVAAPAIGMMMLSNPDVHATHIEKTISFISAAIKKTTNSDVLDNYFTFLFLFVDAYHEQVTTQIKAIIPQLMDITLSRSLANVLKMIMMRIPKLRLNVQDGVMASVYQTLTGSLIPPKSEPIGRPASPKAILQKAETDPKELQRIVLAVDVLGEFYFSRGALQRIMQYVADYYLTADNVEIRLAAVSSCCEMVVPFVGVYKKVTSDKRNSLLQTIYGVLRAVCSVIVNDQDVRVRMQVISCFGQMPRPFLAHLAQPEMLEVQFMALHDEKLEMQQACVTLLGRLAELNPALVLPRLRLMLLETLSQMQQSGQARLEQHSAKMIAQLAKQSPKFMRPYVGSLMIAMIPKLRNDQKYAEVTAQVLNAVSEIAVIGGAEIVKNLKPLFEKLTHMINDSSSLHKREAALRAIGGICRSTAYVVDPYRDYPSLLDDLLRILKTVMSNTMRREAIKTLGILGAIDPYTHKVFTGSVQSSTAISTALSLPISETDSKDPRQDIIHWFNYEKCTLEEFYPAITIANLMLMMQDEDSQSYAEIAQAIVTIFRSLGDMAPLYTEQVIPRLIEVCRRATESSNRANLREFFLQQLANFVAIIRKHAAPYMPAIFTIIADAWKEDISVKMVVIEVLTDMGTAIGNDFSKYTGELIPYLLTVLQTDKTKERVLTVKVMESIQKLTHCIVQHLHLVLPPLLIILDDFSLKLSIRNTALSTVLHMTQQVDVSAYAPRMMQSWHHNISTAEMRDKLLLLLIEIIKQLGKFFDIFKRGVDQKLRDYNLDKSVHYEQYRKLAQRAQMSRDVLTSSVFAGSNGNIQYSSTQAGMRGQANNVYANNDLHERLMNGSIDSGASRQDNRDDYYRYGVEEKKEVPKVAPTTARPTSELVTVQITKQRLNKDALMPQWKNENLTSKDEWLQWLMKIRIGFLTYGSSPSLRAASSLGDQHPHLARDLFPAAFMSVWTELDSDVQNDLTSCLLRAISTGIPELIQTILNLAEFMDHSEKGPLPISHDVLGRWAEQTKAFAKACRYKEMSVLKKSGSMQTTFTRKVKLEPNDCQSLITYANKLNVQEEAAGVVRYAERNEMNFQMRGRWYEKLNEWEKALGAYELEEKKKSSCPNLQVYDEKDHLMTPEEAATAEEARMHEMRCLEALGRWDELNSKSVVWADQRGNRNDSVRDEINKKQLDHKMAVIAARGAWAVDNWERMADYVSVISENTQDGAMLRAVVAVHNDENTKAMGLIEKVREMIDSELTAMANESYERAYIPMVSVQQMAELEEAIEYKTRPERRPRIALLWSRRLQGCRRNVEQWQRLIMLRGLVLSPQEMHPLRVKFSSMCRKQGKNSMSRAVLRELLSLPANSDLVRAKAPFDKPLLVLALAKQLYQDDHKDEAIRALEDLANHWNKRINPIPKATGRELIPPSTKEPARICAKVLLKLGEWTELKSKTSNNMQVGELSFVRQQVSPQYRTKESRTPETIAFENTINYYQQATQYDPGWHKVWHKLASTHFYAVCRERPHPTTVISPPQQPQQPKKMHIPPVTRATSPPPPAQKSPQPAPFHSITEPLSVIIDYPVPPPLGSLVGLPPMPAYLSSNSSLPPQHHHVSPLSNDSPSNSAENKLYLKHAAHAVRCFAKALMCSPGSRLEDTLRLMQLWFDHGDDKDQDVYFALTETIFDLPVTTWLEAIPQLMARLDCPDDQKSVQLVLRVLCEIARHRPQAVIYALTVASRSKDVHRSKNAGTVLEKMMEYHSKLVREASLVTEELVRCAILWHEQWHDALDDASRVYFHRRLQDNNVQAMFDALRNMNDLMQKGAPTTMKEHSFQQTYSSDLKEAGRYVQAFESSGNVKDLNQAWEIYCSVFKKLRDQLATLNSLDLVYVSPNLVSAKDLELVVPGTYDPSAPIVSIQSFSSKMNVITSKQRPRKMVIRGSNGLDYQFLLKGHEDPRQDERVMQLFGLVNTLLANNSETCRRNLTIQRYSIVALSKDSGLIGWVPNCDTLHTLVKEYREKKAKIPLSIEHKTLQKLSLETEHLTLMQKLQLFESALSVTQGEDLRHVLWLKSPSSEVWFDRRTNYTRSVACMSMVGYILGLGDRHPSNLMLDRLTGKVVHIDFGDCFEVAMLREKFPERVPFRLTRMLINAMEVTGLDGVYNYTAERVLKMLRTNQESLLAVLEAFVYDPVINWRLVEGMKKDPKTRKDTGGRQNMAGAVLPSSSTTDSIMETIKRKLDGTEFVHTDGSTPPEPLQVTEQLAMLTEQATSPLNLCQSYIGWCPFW

Target: T1, GFP::PAR-5 (C. elegans) (UniProt P41932)
T1 sequence: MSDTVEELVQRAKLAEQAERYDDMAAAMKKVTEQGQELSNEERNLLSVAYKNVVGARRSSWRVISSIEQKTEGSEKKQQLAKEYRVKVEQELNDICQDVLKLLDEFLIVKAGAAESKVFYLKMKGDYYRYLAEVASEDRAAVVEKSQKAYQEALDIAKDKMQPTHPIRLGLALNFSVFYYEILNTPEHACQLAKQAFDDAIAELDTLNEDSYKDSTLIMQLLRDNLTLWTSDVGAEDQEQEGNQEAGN
Test: affinity purification with mass spectrometry

Row | Substance | binding
1 | RICT-1 (C. elegans (endogenous in worms)) | binds
2 | LET-363 (from UniProt Q95Q95 1-2697) | binds
